Results taken from the supplement of paper PMC10849652.
The other results are listed elsewhere or left out.

Chains of the proteins cited; added tags and fusions are not shown. Lines headed by an entry give the natural chain unless they say otherwise; changes in a name come on top.
UniProt P09429: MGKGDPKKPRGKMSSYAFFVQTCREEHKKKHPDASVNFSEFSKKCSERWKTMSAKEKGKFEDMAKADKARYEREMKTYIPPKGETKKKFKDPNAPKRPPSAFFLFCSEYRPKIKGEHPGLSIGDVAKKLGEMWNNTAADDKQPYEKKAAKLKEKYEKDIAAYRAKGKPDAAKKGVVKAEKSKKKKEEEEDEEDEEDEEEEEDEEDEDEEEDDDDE
UniProt P13598: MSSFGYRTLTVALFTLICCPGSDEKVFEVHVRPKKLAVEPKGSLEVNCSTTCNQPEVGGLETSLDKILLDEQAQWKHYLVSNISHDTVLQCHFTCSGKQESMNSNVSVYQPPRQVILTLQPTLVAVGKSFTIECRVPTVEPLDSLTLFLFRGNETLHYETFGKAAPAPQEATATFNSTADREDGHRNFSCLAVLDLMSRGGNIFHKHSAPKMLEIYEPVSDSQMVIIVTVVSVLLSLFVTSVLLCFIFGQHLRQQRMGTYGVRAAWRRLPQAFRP
UniProt P34931, whole entry, looked up: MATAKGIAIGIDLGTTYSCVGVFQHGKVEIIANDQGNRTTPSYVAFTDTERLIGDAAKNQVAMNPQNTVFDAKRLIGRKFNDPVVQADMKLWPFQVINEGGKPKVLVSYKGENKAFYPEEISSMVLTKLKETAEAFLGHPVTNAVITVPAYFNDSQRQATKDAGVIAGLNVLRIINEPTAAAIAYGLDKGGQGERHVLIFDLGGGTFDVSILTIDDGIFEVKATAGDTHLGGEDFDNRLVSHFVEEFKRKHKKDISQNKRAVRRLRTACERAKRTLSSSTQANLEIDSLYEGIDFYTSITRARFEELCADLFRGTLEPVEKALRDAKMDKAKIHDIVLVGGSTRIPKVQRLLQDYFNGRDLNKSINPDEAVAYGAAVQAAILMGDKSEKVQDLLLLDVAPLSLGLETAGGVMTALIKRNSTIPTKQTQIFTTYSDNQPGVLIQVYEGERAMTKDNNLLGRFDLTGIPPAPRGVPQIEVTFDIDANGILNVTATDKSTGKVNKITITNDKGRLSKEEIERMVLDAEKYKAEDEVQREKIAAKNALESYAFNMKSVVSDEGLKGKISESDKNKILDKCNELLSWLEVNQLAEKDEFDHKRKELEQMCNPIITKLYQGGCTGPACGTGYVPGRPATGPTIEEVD
UniProt Q9BW71: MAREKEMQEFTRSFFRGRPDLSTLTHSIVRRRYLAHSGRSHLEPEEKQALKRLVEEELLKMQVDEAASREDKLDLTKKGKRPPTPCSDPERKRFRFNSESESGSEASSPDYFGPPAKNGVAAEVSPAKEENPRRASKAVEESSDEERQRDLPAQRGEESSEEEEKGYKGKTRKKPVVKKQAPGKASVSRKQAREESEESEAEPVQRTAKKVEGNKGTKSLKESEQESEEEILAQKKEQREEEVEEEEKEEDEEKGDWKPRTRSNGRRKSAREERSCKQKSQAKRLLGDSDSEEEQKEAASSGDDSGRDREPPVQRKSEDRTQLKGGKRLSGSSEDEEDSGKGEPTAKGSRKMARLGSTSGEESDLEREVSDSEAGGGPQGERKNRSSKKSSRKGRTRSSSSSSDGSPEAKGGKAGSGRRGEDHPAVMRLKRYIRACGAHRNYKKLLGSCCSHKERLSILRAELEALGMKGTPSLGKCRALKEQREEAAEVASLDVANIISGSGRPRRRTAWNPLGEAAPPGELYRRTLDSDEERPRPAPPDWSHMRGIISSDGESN
UniProt Q6NVY1: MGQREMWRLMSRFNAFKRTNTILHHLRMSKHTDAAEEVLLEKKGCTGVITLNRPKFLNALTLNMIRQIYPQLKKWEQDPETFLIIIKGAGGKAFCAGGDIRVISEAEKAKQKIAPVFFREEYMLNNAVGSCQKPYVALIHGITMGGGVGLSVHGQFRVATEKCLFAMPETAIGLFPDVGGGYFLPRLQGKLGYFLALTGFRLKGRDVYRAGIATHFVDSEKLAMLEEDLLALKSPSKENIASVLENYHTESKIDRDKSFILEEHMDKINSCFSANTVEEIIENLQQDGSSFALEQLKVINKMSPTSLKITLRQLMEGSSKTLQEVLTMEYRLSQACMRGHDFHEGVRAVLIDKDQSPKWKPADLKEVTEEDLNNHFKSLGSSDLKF
UniProt P82970: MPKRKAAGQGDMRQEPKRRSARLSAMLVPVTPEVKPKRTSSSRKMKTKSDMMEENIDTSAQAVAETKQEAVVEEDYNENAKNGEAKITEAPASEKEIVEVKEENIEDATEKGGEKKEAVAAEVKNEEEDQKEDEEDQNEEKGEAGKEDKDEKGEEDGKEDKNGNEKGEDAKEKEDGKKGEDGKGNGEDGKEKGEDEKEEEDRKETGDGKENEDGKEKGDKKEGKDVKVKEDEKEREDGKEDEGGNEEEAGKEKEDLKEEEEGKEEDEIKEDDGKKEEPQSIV
UniProt Q00839, whole entry, looked up: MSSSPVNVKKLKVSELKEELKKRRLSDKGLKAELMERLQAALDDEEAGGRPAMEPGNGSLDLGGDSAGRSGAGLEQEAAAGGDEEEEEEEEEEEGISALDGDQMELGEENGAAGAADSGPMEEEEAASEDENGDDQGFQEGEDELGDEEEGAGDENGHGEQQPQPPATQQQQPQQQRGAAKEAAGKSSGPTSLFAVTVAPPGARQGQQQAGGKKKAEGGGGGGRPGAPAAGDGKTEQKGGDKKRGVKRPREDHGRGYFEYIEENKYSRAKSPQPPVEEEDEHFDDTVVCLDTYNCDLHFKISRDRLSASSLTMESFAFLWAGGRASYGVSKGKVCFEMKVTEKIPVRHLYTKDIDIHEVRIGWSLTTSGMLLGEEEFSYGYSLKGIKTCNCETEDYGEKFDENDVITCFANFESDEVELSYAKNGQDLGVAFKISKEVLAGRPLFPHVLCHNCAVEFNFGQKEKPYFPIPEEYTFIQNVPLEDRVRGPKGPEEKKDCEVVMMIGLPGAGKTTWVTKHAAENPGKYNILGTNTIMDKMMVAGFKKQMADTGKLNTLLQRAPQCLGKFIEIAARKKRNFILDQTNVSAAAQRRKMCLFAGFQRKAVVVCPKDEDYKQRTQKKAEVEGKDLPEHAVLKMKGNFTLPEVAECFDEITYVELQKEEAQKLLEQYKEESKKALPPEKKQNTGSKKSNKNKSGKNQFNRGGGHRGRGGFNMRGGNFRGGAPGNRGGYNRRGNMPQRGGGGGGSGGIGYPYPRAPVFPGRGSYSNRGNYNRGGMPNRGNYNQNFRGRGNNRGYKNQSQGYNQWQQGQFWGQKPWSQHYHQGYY
UniProt O43390: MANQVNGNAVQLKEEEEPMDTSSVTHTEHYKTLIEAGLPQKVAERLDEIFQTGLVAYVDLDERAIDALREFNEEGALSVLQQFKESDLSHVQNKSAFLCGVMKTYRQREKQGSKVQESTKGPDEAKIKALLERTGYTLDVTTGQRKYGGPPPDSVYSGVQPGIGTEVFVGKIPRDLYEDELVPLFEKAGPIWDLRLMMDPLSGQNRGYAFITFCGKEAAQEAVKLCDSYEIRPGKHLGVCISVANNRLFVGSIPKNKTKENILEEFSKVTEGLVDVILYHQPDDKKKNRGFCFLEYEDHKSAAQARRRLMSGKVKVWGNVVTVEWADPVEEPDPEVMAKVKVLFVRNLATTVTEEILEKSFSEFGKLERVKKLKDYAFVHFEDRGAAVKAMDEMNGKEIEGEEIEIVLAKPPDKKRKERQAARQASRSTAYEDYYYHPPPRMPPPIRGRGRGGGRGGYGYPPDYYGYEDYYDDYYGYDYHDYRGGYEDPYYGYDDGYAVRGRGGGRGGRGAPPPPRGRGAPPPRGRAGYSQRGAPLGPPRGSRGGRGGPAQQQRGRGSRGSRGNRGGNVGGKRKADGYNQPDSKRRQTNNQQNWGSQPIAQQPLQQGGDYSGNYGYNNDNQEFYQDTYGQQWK
UniProt Q8TCT9: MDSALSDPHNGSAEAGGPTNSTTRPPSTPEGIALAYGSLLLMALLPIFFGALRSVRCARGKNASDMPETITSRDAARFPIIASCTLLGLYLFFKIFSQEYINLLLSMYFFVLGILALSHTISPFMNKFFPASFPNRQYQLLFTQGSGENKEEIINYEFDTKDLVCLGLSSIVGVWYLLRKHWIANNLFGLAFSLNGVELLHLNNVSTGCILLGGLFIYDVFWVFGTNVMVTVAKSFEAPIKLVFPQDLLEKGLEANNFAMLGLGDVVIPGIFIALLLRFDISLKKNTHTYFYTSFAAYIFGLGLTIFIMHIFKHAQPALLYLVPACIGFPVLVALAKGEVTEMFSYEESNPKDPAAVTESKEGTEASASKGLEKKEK
UniProt P48723: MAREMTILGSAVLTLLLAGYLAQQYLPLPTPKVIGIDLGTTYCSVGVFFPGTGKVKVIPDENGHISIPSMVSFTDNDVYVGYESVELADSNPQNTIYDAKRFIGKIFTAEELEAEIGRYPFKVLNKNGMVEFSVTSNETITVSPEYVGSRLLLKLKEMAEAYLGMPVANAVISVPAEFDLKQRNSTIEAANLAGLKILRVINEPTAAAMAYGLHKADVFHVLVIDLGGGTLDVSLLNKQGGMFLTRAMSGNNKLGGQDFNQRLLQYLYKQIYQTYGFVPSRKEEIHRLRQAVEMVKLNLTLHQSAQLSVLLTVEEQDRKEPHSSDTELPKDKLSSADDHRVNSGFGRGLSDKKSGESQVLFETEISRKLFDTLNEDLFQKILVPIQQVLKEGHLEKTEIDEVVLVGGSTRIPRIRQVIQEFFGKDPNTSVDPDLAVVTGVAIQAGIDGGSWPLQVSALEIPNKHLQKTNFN
UniProt P26583: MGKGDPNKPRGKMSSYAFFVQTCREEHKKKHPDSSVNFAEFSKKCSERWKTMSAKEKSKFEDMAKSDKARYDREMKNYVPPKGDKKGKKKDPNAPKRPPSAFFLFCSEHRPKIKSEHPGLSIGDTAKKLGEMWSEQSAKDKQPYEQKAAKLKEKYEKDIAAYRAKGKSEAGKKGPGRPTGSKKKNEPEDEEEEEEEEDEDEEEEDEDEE
UniProt P56937: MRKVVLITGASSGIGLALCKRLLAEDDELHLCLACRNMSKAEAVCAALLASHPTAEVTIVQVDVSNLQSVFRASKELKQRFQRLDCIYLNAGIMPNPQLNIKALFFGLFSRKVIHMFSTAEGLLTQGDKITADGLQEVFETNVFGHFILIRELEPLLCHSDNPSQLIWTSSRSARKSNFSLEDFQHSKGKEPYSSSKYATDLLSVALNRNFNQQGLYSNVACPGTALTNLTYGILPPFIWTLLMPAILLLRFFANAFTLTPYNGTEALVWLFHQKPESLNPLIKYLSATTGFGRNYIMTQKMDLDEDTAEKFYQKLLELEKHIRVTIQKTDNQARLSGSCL
UniProt O14979: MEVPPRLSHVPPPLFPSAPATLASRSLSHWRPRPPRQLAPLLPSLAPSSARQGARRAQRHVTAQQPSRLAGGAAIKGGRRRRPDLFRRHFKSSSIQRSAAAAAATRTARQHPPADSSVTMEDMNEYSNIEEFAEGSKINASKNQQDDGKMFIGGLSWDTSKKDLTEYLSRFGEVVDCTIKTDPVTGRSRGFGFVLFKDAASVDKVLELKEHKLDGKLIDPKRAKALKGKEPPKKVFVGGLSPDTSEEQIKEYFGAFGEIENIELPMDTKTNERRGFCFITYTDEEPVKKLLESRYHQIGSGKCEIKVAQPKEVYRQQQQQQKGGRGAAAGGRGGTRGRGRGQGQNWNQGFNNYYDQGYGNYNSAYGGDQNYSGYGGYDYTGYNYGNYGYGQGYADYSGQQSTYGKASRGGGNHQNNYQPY
UniProt Q9NQE9: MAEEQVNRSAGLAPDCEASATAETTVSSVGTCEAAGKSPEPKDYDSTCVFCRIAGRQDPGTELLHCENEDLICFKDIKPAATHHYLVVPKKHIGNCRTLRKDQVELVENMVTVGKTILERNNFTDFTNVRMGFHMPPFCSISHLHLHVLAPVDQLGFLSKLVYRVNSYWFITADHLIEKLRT

How the values were obtained:
Assay in all cases: log2 fold change, soluble protein after heating vs DMSO (PISA); higher = thermal stabilisation; K562 cells, 10 uM, 30 min; active = over 0.2 and 3.5 SD of the protein, either way, in both replicates (recomputed)
[1] = compound: CC1=C(C=C(C=C1)NC(=O)C2=CC(=CC=C2)C(C)(C)C#N)NC3=CC4=C(C=C3)N=CN(C4=O)C
Summary of the method: (§1)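 K562 cells (2×10^6 cells/mL) were treated with 10 μM compound for 30 min, and aliquots were heated for 3 min over 48°C-58°C. Pooled aliquots were extracted in PBS with 0.5% NP-40 at 4°C, and the supernatant after 21,000xg for 90 min was measured by TMTpro 16plex LC-MS/MS with channel sums equalised. Reported thermal stability, relative to control samples and from duplicates, is a log2 fold change.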

[2] = compound: CC1=C(C=C(C=C1)NC(=O)C2=CC(=CC=C2)N(C)C)NC(=O)C3=CC=C(C=C3)O
Summary of the method: as §1

[3] = compound: CC1=CC=C(C=C1)SC2=C3C=C(SC3=CN=C2)C(=O)N
Summary of the method: as §1

[4] = compound: CC1=NC(=CC=C1)C2=C(N=C(N2)C(C)(C)C)C3=CC4=NC=CN=C4C=C3
Summary of the method: as §1

Nexturastat A = compound: CCCCN(Cc1ccc(C(=O)NO)cc1)C(=O)Nc1ccccc1 [Nexturastat A]
Summary of the method: as §1

vemurafenib = compound: CCCS(=O)(=O)Nc1ccc(F)c(C(=O)c2c[nH]c3ncc(-c4ccc(Cl)cc4)cc23)c1F [vemurafenib]
Summary of the method: as §1

[5] = compound: CCCS(=O)(=O)Nc1ccc(F)c(C(=O)c2c[nH]c3ncc(Cl)cc23)c1F
Summary of the method: as §1

[6] = compound: CCCc1cc(C)[nH]c(=O)c1CNC(=O)c1cc(-c2ccnc(N3CCN(C)CC3)c2)cc2c1cnn2C(C)C
Summary of the method: as §1

givinostat = compound: CCN(CC)Cc1ccc2cc(COC(=O)Nc3ccc(C(=O)NO)cc3)ccc2c1 [givinostat]
Summary of the method: as §1

barasertib = compound: CCN(CCCOc1ccc2c(Nc3cc(CC(=O)Nc4cccc(F)c4)[nH]n3)ncnc2c1)CCOP(=O)(O)O [barasertib]
Summary of the method: as §1

[7] = compound: CC[C@@H]1C(=O)N(C)c2cnc(Nc3ccc(C(=O)NC4CCN(C)CC4)cc3OC)nc2N1C1CCCC1
Summary of the method: as §1

volasertib = compound: CC[C@@H]1C(=O)N(C)c2cnc(Nc3ccc(C(=O)N[C@H]4CC[C@H](N5CCN(CC6CC6)CC5)CC4)cc3OC)nc2N1C(C)C [volasertib]
Summary of the method: as §1

[8] = compound: CC[C@H](C)N1C=C(C2=C(C=C(C=C21)C3=CN=C(C=C3)N4CCNCC4)C(=O)NCC5=C(C=C(NC5=O)C)C)C
Summary of the method: as §1

epoxomicin = compound: CC[C@H](C)[C@@H](C(=O)N[C@@H]([C@@H](C)O)C(=O)N[C@@H](CC(C)C)C(=O)[C@]1(CO1)C)NC(=O)[C@H]([C@@H](C)CC)N(C)C(=O)C [epoxomicin]
Summary of the method: as §1

[9] = compound: CCn1c(C(=O)N(C2CC2)C2CC2)cc2c3c(ncn3C)c(Nc3cc(C)n(C)n3)nc21
Summary of the method: as §1

[10] = compound: CCn1cc(-c2ccnc3[nH]c(-c4cccc(CN(C)C)c4)cc23)c(-c2ccc(NC(=O)N(C)C)cc2)n1
Summary of the method: as §1

[11] = compound: CN(C)CC(=O)Nc1ccc2[nH]c(=O)c3ccccc3c2c1
Summary of the method: as §1

rosiglitazone = compound: CN(CCOC1=CC=C(C=C1)C[C@H]2C(=O)NC(=O)S2)C3=CC=CC=N3 (racemic) [rosiglitazone]
Summary of the method: as §1

[12] = compound: CN1C2=C(C3=C1C(=O)N(N=C3)CC4=CC(=CC=C4)N)SC(=C2)S(=O)C
Summary of the method: as §1

[13] = compound: CN1CCC(CNc2ccc3ncc(-c4cccc(OC(F)(F)F)c4)n3n2)CC1
Summary of the method: as §1

Measured: log2 fold change

HMGB1 (UniProt P09429)
inactive: [1] 0.009 | [2] 0.052 | [3] 0.007 | [4] 0.02 | Nexturastat A -0.023 | vemurafenib -0.033 | [5] -0.011 | [6] 0.07 | givinostat -0.06 | barasertib 0.017 | [7] -0.077 | volasertib 0.069 | [8] 0.032 | epoxomicin 0.062 | [9] 0.005 | [10] -0.011 | [11] 0.003 | rosiglitazone -0.015 | [12] -0.037 | [13] 0.011

HUWE1 (UniProt Q7Z6Z7)
inactive: [1] 0.024 | [2] -0.028 | [3] -0.009 | [4] -0.011 | Nexturastat A -0.032 | vemurafenib 0.017 | [5] 0.049 | [6] 0.006 | givinostat 0.006 | barasertib 0.012 | [7] -0.011 | volasertib -0.089 | [8] 0.035 | epoxomicin 0.029 | [9] -0.017 | [10] -0.025 | [11] 0.011 | rosiglitazone 0.028 | [12] -0.029 | [13] -0.037

ICAM2 (UniProt P13598)
inactive: [1] 0.015 | [2] 0.015 | [3] 0.047 | [4] 0.053 | Nexturastat A -0.123 | vemurafenib -0.005 | [5] 0.018 | [6] 0.031 | givinostat -0.036 | barasertib -0.023 | [7] 0.027 | volasertib 0.045 | [8] 0.03 | epoxomicin 0.02 | [9] 0.051 | [10] -0.076 | [11] 0.131 | rosiglitazone -0.014 | [12] -0.181 | [13] 0.08

HSPA1L (UniProt P34931)
inactive: [1] -0.043 | [2] -0.001 | [3] -0.019 | [4] -0.009 | Nexturastat A 0.046 | vemurafenib -0.018 | [5] -0.079 | [6] 0.053 | givinostat -0.062 | barasertib -0.013 | [7] -0.017 | volasertib 0.077 | [8] -0.084 | epoxomicin -0.021 | [9] 0.021 | [10] -0.077 | [11] -0.03 | rosiglitazone 0.04 | [12] -0.104 | [13] -0.098

HIRIP3 (UniProt Q9BW71)
inactive: [1] -0.016 | [2] -0.042 | [3] 0.011 | [4] 0.047 | Nexturastat A -0.004 | vemurafenib 0.019 | [5] 0.039 | [6] -0.058 | givinostat 0.042 | barasertib 0.006 | [7] -0.036 | volasertib -0.044 | [8] 0.038 | epoxomicin 0.032 | [9] -0.001 | [10] -0.018 | [11] 0.003 | rosiglitazone 0 | [12] -0.041 | [13] -0.056

HIBCH (UniProt Q6NVY1)
inactive: [1] 0.041 | [2] -0.036 | [3] -0.035 | [4] 0.042 | Nexturastat A -0.04 | vemurafenib 0.009 | [5] 0.003 | [6] 0.024 | givinostat -0.01 | barasertib 0.009 | [7] 0.081 | volasertib 0.053 | [8] 0.019 | epoxomicin 0.012 | [9] 0.07 | [10] -0.08 | [11] 0.01 | rosiglitazone 0.045 | [12] -0.089 | [13] -0.099

HMGN5 (UniProt P82970)
inactive: [1] -0.01 | [2] 0.037 | [3] -0.025 | [4] 0.016 | Nexturastat A -0.055 | vemurafenib -0.028 | [5] 0.037 | [6] -0.047 | givinostat -0.045 | barasertib -0.028 | [7] 0.018 | volasertib 0.042 | [8] -0.03 | epoxomicin 0.019 | [9] 0.026 | [10] 0.022 | [11] 0.032 | rosiglitazone -0.02 | [12] 0.003 | [13] 0.106

HNRNPU (UniProt Q00839)
inactive: [1] 0.06 | [2] -0.1 | [3] -0.027 | [4] -0.024 | Nexturastat A 0.301 | vemurafenib -0.032 | [5] 0.023 | [6] 0.123 | givinostat 0.168 | barasertib -0.073 | [7] 0.017 | volasertib -0.027 | [8] 0.069 | epoxomicin -0.05 | [9] -0.089 | [10] 0.176 | [11] -0.034 | rosiglitazone -0.097 | [12] 0.19 | [13] -0.11

HNRNPR isoform 2 (UniProt O43390)
inactive: [1] 0.113 | [2] -0.01 | [3] -0.028 | [4] -0.034 | Nexturastat A 0.16 | vemurafenib -0.068 | [5] -0.02 | [6] 0.066 | givinostat 0.024 | barasertib -0.126 | [7] 0.112 | volasertib 0.079 | [8] 0.011 | epoxomicin -0.2 | [9] 0.019 | [10] 0.216 | [11] -0.07 | rosiglitazone -0.092 | [12] 0.186 | [13] 0.073

HM13 isoform 2 (UniProt Q8TCT9)
inactive: [1] 0.009 | [2] 0.05 | [3] 0.026 | [4] 0.003 | Nexturastat A -0.123 | vemurafenib -0.001 | [5] -0.013 | [6] -0.059 | givinostat 0.001 | barasertib -0.019 | [7] 0.043 | volasertib 0.055 | [8] -0.083 | epoxomicin 0.014 | [9] 0.007 | [10] 0.048 | [11] 0.02 | rosiglitazone 0.006 | [12] -0.037 | [13] 0.065

HSPA13 (UniProt P48723)
inactive: [1] 0.021 | [2] 0.002 | [3] 0.021 | [4] 0.03 | Nexturastat A 0.003 | vemurafenib 0.028 | [5] 0.001 | [6] 0.005 | givinostat -0.008 | barasertib 0.006 | [7] -0.007 | volasertib -0.077 | [8] 0.003 | epoxomicin -0.014 | [9] 0.004 | [10] -0.031 | [11] -0.005 | rosiglitazone -0.015 | [12] -0.056 | [13] 0.158

HMGB2 (UniProt P26583)
inactive: [1] 0.058 | [2] 0.009 | [3] -0.017 | [4] 0.088 | Nexturastat A -0.001 | vemurafenib 0.004 | [5] 0.006 | [6] 0.13 | givinostat -0.026 | barasertib -0.001 | [7] -0.097 | volasertib 0.052 | [8] 0.07 | epoxomicin 0.031 | [9] 0.061 | [10] 0.02 | [11] 0 | rosiglitazone -0.01 | [12] -0.028 | [13] 0

HSD17B7 (UniProt P56937)
inactive: [1] -0.021 | [2] -0.004 | [3] 0.047 | [4] 0.092 | Nexturastat A -0.128 | vemurafenib 0.056 | [5] 0.099 | [6] -0.06 | givinostat -0.021 | barasertib 0.07 | [7] -0.08 | volasertib -0.112 | [8] 0.065 | epoxomicin 0.047 | [9] 0.016 | [10] -0.04 | [11] -0.032 | rosiglitazone 0.049 | [12] -0.035 | [13] -0.126

Reprinted at random: two entries already listed, in no set order.
HSD17B7 (UniProt P56937)
inactive: [1] -0.021 | [2] -0.004 | [3] 0.047 | [4] 0.092 | Nexturastat A -0.128 | vemurafenib 0.056 | [5] 0.099 | [6] -0.06 | givinostat -0.021 | barasertib 0.07 | [7] -0.08 | volasertib -0.112 | [8] 0.065 | epoxomicin 0.047 | [9] 0.016 | [10] -0.04 | [11] -0.032 | rosiglitazone 0.049 | [12] -0.035 | [13] -0.126

HNRNPR isoform 2 (UniProt O43390)
inactive: [1] 0.113 | [2] -0.01 | [3] -0.028 | [4] -0.034 | Nexturastat A 0.16 | vemurafenib -0.068 | [5] -0.02 | [6] 0.066 | givinostat 0.024 | barasertib -0.126 | [7] 0.112 | volasertib 0.079 | [8] 0.011 | epoxomicin -0.2 | [9] 0.019 | [10] 0.216 | [11] -0.07 | rosiglitazone -0.092 | [12] 0.186 | [13] 0.073

Continuation.

HNRNPDL (UniProt O14979)
inactive: [1] 0.008 | [2] 0.008 | [3] -0.101 | [4] -0.061 | Nexturastat A 0.104 | vemurafenib -0.072 | [5] -0.091 | [6] 0.072 | givinostat -0.069 | barasertib -0.161 | [7] 0.259 | volasertib 0.217 | [8] -0.051 | epoxomicin -0.19 | [9] -0.071 | [10] 0.205 | [11] -0.136 | rosiglitazone -0.155 | [12] 0.173 | [13] 0.225

HINT3 (UniProt Q9NQE9)
inactive: [1] 0.021 | [2] 0.021 | [3] 0.02 | [4] 0.024 | Nexturastat A 0.02 | vemurafenib 0.02 | [5] 0.01 | [6] 0.044 | givinostat 0.046 | barasertib 0.008 | [7] -0.028 | volasertib -0.006 | [8] -0.025 | epoxomicin -0.028 | [9] -0.026 | [10] -0.041 | [11] 0.011 | rosiglitazone -0.029 | [12] -0.033 | [13] -0.161
